Test results as given in PMC7819943, “Rice protein-binding microarrays: a tool to detect cis-acting elements near promoter regions in rice”.
The other results are listed elsewhere or left out.

The chains behind the UniProt entries cited, without tags or fusion partners.
UniProt Q0JBA9, entry or part of it: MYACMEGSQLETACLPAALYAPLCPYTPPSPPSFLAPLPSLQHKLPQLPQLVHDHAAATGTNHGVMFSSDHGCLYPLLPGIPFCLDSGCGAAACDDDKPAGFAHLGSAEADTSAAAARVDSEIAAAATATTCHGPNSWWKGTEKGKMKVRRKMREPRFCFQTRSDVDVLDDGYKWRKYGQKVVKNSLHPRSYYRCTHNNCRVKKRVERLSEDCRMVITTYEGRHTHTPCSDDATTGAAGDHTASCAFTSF

biological target: OsWRKY34 (Oryza sativa, UniProt Q0JBA9 1-250); assay: protein-binding microarray (RPBM); PBS, 2% BSA, 51.3 ng/ul salmon testes DNA, 50 uM zinc acetate, 200 nM TF, 25 C, 1 h; high values mean tight binding; conditions: protein: recombinant; tags: N-terminal polyhistidine and DsRed monomer fusion (pET32a); label: CyDye5-dUTP incorporated in the synthesized complementary strand; 3' TTTTT single-stranded linker to array surface; dsDNA, one strand shown
Procedure, shortened: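 Per-feature fluorescence intensity (arbitrary units), read on an Axon 4000B scanner, is the binding signal. Transcription factors carrying an N-terminal polyhistidine tag and DsRed fusion were expressed in E. coli BL21-CodonPlus and purified on Ni–NTA. A custom Agilent array, made double-stranded by primer extension with Cy5-dUTP and blocked with 2% BSA, was incubated with 200 nM protein in PBS, 2% BSA, salmon testes DNA and 50 µM zinc acetate at 25 °C for 1 h and then washed.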

Sequence | binding signal
GGTGCTTGGATTGGGTGAAGGGGCATCATCTGCTCACTCCCGGAGTCACCTAGTGCAG | 8370 fluorescence intensity (a.u.)
CTTCCTCGTCAGTTTGCCCTTTAGCCCACCCGCACCGCCGCGGAGTCACCTAGTGCAG | 8290 fluorescence intensity (a.u.)
ACTCACATATCTCGTTTTCCACGCGCACTACTTTCCTAACCGGAGTCACCTAGTGCAG | 9090 fluorescence intensity (a.u.)
GCCCTTGAATTTCTTTCACTTCCAATTTTAAGCTGATGTTCGGAGTCACCTAGTGCAG | 8880 fluorescence intensity (a.u.)
ACTCTCTCTCCTTCAACACTGAGCTGAGCTCCACACTCCGCGGAGTCACCTAGTGCAG | 9240 fluorescence intensity (a.u.)
GGTAGATTATATTAGGTTTTTCTTCGTGTTGTATTCACGACGGAGTCACCTAGTGCAG | 8720 fluorescence intensity (a.u.)
GGCAGATGTGGACGGAGGGAGGGAGGGAGGGAGAGGGGCACGGAGTCACCTAGTGCAG | 17100 fluorescence intensity (a.u.)
GGTTATCCTACTTCTATAAATTTCACACAATCGCTAGAATCGGAGTCACCTAGTGCAG | 8300 fluorescence intensity (a.u.)
TATGTGTGTCTCGCTGGCTTGGTGATTAGTTAGTCCTTTTCGGAGTCACCTAGTGCAG | 9950 fluorescence intensity (a.u.)
AGGGAGGAGGGTGGGTGGTGCCAACACGTCAGGCTGAATTCGGAGTCACCTAGTGCAG | 12200 fluorescence intensity (a.u.)
ATGTTTTTTTTTGGGTCGCTTTCTTTGTGTGTGTATATATCGGAGTCACCTAGTGCAG | 16400 fluorescence intensity (a.u.)
TGGGCCTTGGTAAGGGACAGTGGCATACTCGTGTACATGGCGGAGTCACCTAGTGCAG | 8300 fluorescence intensity (a.u.)
CTACTGCTTTCTTTCTTTCTCTATTGCAGTCTACCTCCTACGGAGTCACCTAGTGCAG | 11400 fluorescence intensity (a.u.)
GCGCGCGGTTCCACCTCCCGGTCATGTAATTCATCCGTATCGGAGTCACCTAGTGCAG | 8370 fluorescence intensity (a.u.)
ACATGACCCCATGATTCGATTGGATTGTTGTTACATAAAACGGAGTCACCTAGTGCAG | 8930 fluorescence intensity (a.u.)
GTGAATGTAAAAAATACTTGCTTTTGTCCTTTATGATTGGCGGAGTCACCTAGTGCAG | 8970 fluorescence intensity (a.u.)
GAATGTGCGTTTATGTTTATTTGCATTGCTTATTAGCAACCGGAGTCACCTAGTGCAG | 9510 fluorescence intensity (a.u.)
GTGTGTCTGGTGACTCTTATTTTGTTAGTCTGATTCGTTTCGGAGTCACCTAGTGCAG | 10200 fluorescence intensity (a.u.)
TCCATTTTCACCACTGTTTGTTATTGATACCGACTAAAACCGGAGTCACCTAGTGCAG | 10300 fluorescence intensity (a.u.)
TCCGATGGGAGCCTCTATCTCTATCTCTCTCTAAACCCAACGGAGTCACCTAGTGCAG | 8070 fluorescence intensity (a.u.)
ACATATATAGTACGTTAATTTAATCATGTTATTACAAGCTCGGAGTCACCTAGTGCAG | 8510 fluorescence intensity (a.u.)

Sequence | binding signal
CCCCATCAACCGCCGCTGACGCCCCTGCCTCTGAGTCCACCGGAGTCACCTAGTGCAG | 9800 fluorescence intensity (a.u.)
AAACAATACTACCTACAATTTTATTTACATTACGTTTGGTCGGAGTCACCTAGTGCAG | 8420 fluorescence intensity (a.u.)
CCGATCCAGAGCTCTCCGTCCGCTTCCCGCGCTCGTGTCGCGGAGTCACCTAGTGCAG | 8900 fluorescence intensity (a.u.)
ATTTTTTTTTGGCATAGTTTGTGTTCACTGCAAAAATCACCGGAGTCACCTAGTGCAG | 9080 fluorescence intensity (a.u.)
CATCTGCTTGGACGATTTTCTTGGGTGCTATCCTGTTCTTCGGAGTCACCTAGTGCAG | 11000 fluorescence intensity (a.u.)
AGAATCATCTCCTGCATACATACGTCAACCGTCTCCATCCCGGAGTCACCTAGTGCAG | 10900 fluorescence intensity (a.u.)
TTTATCATCTGCATATATTTGAGTGCCTTTGCAGAATTTCCGGAGTCACCTAGTGCAG | 8310 fluorescence intensity (a.u.)
GCCTCTCTACACGATCTGCGAGTGTTACCTTGTGTTCTTACGGAGTCACCTAGTGCAG | 8280 fluorescence intensity (a.u.)
ATGGACTTTTTTCTCAATATTCCTTGTTTTTATTTCTGAACGGAGTCACCTAGTGCAG | 12000 fluorescence intensity (a.u.)
TATTTGACCATTCATATGTAAGTACCATTTGTTTCGCTGTCGGAGTCACCTAGTGCAG | 10300 fluorescence intensity (a.u.)
CCAGGTCAGAAAGCTACAAACTACTCGGTCTTTTGGTCAACGGAGTCACCTAGTGCAG | 9670 fluorescence intensity (a.u.)
TTTCTTTTACCGGTGTTTTTTCTACATCGAATTTTCTCTTCGGAGTCACCTAGTGCAG | 9880 fluorescence intensity (a.u.)
CTGTTTAGATGTAGTGACAATTCAATAGCCTATGCATCCACGGAGTCACCTAGTGCAG | 8720 fluorescence intensity (a.u.)
CGCCAAGGGGACCAGACCACACCACTCCGGTCCGACTCCGCGGAGTCACCTAGTGCAG | 8550 fluorescence intensity (a.u.)
AGGTGTATATTGGGCAGGTATTAGGTGCATAGTCAAAAGTCGGAGTCACCTAGTGCAG | 11000 fluorescence intensity (a.u.)
ACCAAGGGGCCTGAACCAATATAATCCTTGTCTTATGTTTCGGAGTCACCTAGTGCAG | 8040 fluorescence intensity (a.u.)
TTGTTTATTTAAGGTGTGATTGTATTTGGATCATGTTTTGCGGAGTCACCTAGTGCAG | 8980 fluorescence intensity (a.u.)
GTGGAGTGCGGTGGACGGAGCGGCGGGGCGGGGCGGTCAGCGGAGTCACCTAGTGCAG | 16700 fluorescence intensity (a.u.)
TCCTCTGGCTTTCTTTTCCCATTTCGTCTCTTGTTTGTTTCGGAGTCACCTAGTGCAG | 9160 fluorescence intensity (a.u.)
CTCCTCTGCTTCCGATCTGCGCCGCCGCGGCGGGAGGGTCCGGAGTCACCTAGTGCAG | 8690 fluorescence intensity (a.u.)
AATTAGATTTCCCAGTACAGATTGTCGGTCAAAGTTTGGCCGGAGTCACCTAGTGCAG | 8640 fluorescence intensity (a.u.)

Sequence | binding signal
TCTGCACATCCATCGACACAAAGTCTCAAGTTGTTGCGCGCGGAGTCACCTAGTGCAG | 10300 fluorescence intensity (a.u.)
CATGTGTTAAAAAGTCAACGGTGTCAAATATTTTAAAACACGGAGTCACCTAGTGCAG | 9250 fluorescence intensity (a.u.)
GTGGATTGCATGATGAATCCTTTTGCACAATTGTTTGGCCCGGAGTCACCTAGTGCAG | 8490 fluorescence intensity (a.u.)
TGTCCACACTTCCCAACTCATTAAATAGTTTGTTTTTTGACGGAGTCACCTAGTGCAG | 8320 fluorescence intensity (a.u.)
GGAAGAGATTTTTCATGTGTTACAATATACTACTCCCTCCCGGAGTCACCTAGTGCAG | 12100 fluorescence intensity (a.u.)
TCTTTCGCGTTTTTTATGGTGTGTTTTCTTTTCCGCGTGCCGGAGTCACCTAGTGCAG | 10500 fluorescence intensity (a.u.)
AAGAGATTTCTTCAACCTGCATACTAGGTTCTCTTTTCCACGGAGTCACCTAGTGCAG | 8270 fluorescence intensity (a.u.)
GACGCATCCGCACTCCACTCCACTCCACTCCACTCCACTGCGGAGTCACCTAGTGCAG | 8230 fluorescence intensity (a.u.)
CCATACCACCGTTTTTCTCGTGATGTCATATCTTCAGGTTCGGAGTCACCTAGTGCAG | 9930 fluorescence intensity (a.u.)
TATCCTATCCTACGTTTGTTGCTCGGTTGCTTCTCTTCTTCGGAGTCACCTAGTGCAG | 13700 fluorescence intensity (a.u.)
ATCATTCCCCACACCACAAGGCCTCAAGTAATTCACAGTTCGGAGTCACCTAGTGCAG | 8970 fluorescence intensity (a.u.)
TTGCGCTTACGTTTGGTGTTTGTGTTTTACGAGATGCATTCGGAGTCACCTAGTGCAG | 9340 fluorescence intensity (a.u.)
CGGACATTTTCACCGCCACACTGATTTGTGGCGCGCCACTCGGAGTCACCTAGTGCAG | 9290 fluorescence intensity (a.u.)
CTTAATAAATTTGTCTCTCGATTTTCTTACGGATTATGTACGGAGTCACCTAGTGCAG | 8760 fluorescence intensity (a.u.)
TTCTCTGACTACCGGTCCCACCTGTCATCGACCTGCGCTCCGGAGTCACCTAGTGCAG | 8510 fluorescence intensity (a.u.)
CCATGCCCACTGTGGTATAGCTCCTTGGATCTGGTTATGTCGGAGTCACCTAGTGCAG | 9530 fluorescence intensity (a.u.)
TGTTGTTTTGGTCTACAGTTGTCTTTTGAGTTGTTGTATTCGGAGTCACCTAGTGCAG | 12200 fluorescence intensity (a.u.)
CGCGCGACGTTCTTTCCGTTTTCCGTTTGCCACGAATTCACGGAGTCACCTAGTGCAG | 8990 fluorescence intensity (a.u.)
ATAGTTGTTTGGCCTTTTACTAATATTGTGTCCATGGATGCGGAGTCACCTAGTGCAG | 8270 fluorescence intensity (a.u.)
CTGGAGGATCCTATTGTGCTTACCCTGATTTTCATCCCTCCGGAGTCACCTAGTGCAG | 10900 fluorescence intensity (a.u.)
CCGCCCGCCAGTGTGCTCCTCGTTGGCTCGATTGCTCATTCGGAGTCACCTAGTGCAG | 8480 fluorescence intensity (a.u.)

Single entries from above:
Entry of TTGCGCTTACGTTTGGTGTTTGTGTTTTACGAGATGCATTCGGAGTCACCTAGTGCAG under binding signal: 9340 fluorescence intensity (a.u.)
Entry of CCATACCACCGTTTTTCTCGTGATGTCATATCTTCAGGTTCGGAGTCACCTAGTGCAG under binding signal: 9930 fluorescence intensity (a.u.)
Entry of CCGCCCGCCAGTGTGCTCCTCGTTGGCTCGATTGCTCATTCGGAGTCACCTAGTGCAG under binding signal: 8480 fluorescence intensity (a.u.)

The list goes on.

Sequence | binding signal
TTTTTTCGGCTTACTGCACATTTGTAACCTGCAGTCCTTCCGGAGTCACCTAGTGCAG | 9490 fluorescence intensity (a.u.)
ACCTCGTTTTCTGGTCACAGTTTCCTTTTGTGTGAAAAACCGGAGTCACCTAGTGCAG | 9370 fluorescence intensity (a.u.)
TCTGGTGATTCCCGGCCTCCTCGATTGCTCGCCCGCGCGGCGGAGTCACCTAGTGCAG | 8370 fluorescence intensity (a.u.)
ATTTGAAATTTAAATTTTAGCTTTTGCTTTAGTTTATTTGCGGAGTCACCTAGTGCAG | 9680 fluorescence intensity (a.u.)
CGTGCCGCTGCCGTCGCGCACTGCCCGTTGACGCACGCCTCGGAGTCACCTAGTGCAG | 9740 fluorescence intensity (a.u.)
ACCTTCGCTAAGCTAATTCCGCGCCTACTCCACCCGTCACCGGAGTCACCTAGTGCAG | 11200 fluorescence intensity (a.u.)
CAGGAATAGACCTGTATCTTTGTTTTGTTGTCTGAAACTTCGGAGTCACCTAGTGCAG | 8760 fluorescence intensity (a.u.)
AGACGAGACCGACCCACCGCACCGCGCCGCACTTGCGCCACGGAGTCACCTAGTGCAG | 9900 fluorescence intensity (a.u.)
TTTCTTGGCTGGTTTGGTTGTGGATTGGATTGGATTGGGTCGGAGTCACCTAGTGCAG | 16100 fluorescence intensity (a.u.)
TCCCCGCTACTCCGCTAGTAATCGCAACGCGAGCGTTCCTCGGAGTCACCTAGTGCAG | 10000 fluorescence intensity (a.u.)
ACAACCTCCCGCCTCTTGGTTTCCCCAATCTCCCGCGCGCCGGAGTCACCTAGTGCAG | 8680 fluorescence intensity (a.u.)
TTTTTTATCGTAGTTTATTTTTCAGTTTTTGCTTTTAGATCGGAGTCACCTAGTGCAG | 9270 fluorescence intensity (a.u.)
TACTATTTATTTATTATCACTGTATGCGTCTATGCACTTCCGGAGTCACCTAGTGCAG | 11100 fluorescence intensity (a.u.)
ATCCCAGCCCAGCCCGCTTGCTCCCTTTGCTTGCCTGTCTCGGAGTCACCTAGTGCAG | 9930 fluorescence intensity (a.u.)
GATTTGATGGATTTGTTGAGAGATATGCTTCTTAAGCCAACGGAGTCACCTAGTGCAG | 8300 fluorescence intensity (a.u.)
TCACGCGCTAATGGATCGCTCCGTTTTCCATGCTACTGTTCGGAGTCACCTAGTGCAG | 9860 fluorescence intensity (a.u.)
GCGCCGACTCACTCCACCACCTCATCTCATCAGCTGCCTCCGGAGTCACCTAGTGCAG | 10600 fluorescence intensity (a.u.)
GGAGGTAGGTGTGTGCCTGTGCGCTGCGTCTTTTGACCAACGGAGTCACCTAGTGCAG | 9710 fluorescence intensity (a.u.)
GCGACCTTGCCTCTGCTTCACATTGCCATAGCCGTTTCCTCGGAGTCACCTAGTGCAG | 14100 fluorescence intensity (a.u.)
AGTTTAACTTTTTTTAGGGCGGAGGGAGTATATATGGGGCCGGAGTCACCTAGTGCAG | 10600 fluorescence intensity (a.u.)
TTTGGAACATTAATGATAGGGGTGAGTAGACTAATTTTTCCGGAGTCACCTAGTGCAG | 8680 fluorescence intensity (a.u.)
